{
  "source": "patent US20010051636A1",
  "about": "“Combination treatment for inhibiting bone loss” (priority 1994, published 2001)",
  "system": "ovariectomized (ovex) rats",
  "assay": "5-week ovex rat model of post-menopausal osteoporosis: femur density by X-ray grey scale image analysis",
  "type": "in vivo",
  "settings": "for RANGE 0-60 (relative density of bone, femur X-ray grey scale): Table 3",
  "description": "In the following, a model of post-menopausal osteoporosis was used in which effects of different treatments upon femur density were determined.\nSeventy-five day old female Sprague Dawley rats (weight range of 225 to 275 g) were obtained from Charles River Laboratories (Portage, Mich.). They were housed in groups of 3 and had ad libitum access to food (calcium content approximately 1%) and water. Room temperature was maintained at 22.2°±1.7° C. with a minimum relative humidity of 40%. The photoperiod in the room was 12 hours light and 12 hours dark.\nOne week after arrival, the rats underwent bilateral ovariectomy under anesthesia (44 mg/kg Ketamine and 5 mg/kg Xylazine (Butler, Indianapolis, Ind.) administered intramuscularly). Treatment with vehicle or the indicated compound was initiated either on the day of surgery following recovery from anesthesia or 35 days following the surgery.\nOral dosage was by gavage in 0.5 mL of 1% carboxymethylcellulose (CMC).\nBody weight was determined at the time of surgery and weekly during the study, and the dosage was adjusted with changes in body weight. Vehicle-treated ovariectomized (ovex) rats and non-ovariectomized (intact) rats were evaluated in parallel with each experimental group to serve as negative and positive controls.\nThe rats were treated daily for 35 days (6 rats per treatment group) and sacrificed by decapitation on the 36th day. The 35-day time period was sufficient to allow maximal reduction in bone density, measured as described infra. At the time of sacrifice, the uteri were removed, dissected free of extraneous tissue, and the fluid contents were expelled before determination of wet weight in order to confirm estrogen deficiency associated with complete ovariectomy. […] The uteri were then placed in 10% neutral buffered formalin to allow for subsequent histological analysis.\nThe right femurs are excised and scanned at the distal metaphysis proximal from the growth plate region by grey scale image analysis of digitalized X-ray generation on a Nicolet NXR-1200 real time X-ray imaging system.",
  "note": "Marks after values point to notes of the source that are not given here.",
  "data": [
    {"smiles": "NCCCC(O)(P(=O)(O)O)P(=O)(O)O", "note": "[ALN, Alendronate]", "values": [
      {"measurement": "RANGE 0-50 (relative density of bone, femur X-ray grey scale)", "setting": "Table 1, 0.1 mg/kg PO CDX, 47KV/4.5C, 35 days", "result": 37.47},
      {"measurement": "RANGE 0-50 (relative density of bone, femur X-ray grey scale)", "setting": "Table 1, 1 mg/kg PO CDX, 47KV/4.5C, 35 days", "result": "73.79*"},
      {"measurement": "RANGE 0-50 (relative density of bone, femur X-ray grey scale)", "setting": "Table 2, 0.1 mg/kg PO CDX, 47KV/4.5C", "result": 39.47},
      {"measurement": "RANGE 0-50 (relative density of bone, femur X-ray grey scale)", "setting": "Table 2, 1 mg/kg PO CDX", "result": "65.60*"},
      {"measurement": "RANGE 0-60 (relative density of bone, femur X-ray grey scale)", "setting": "0.1 mg/kg PO CDX, 47KV/4.5C", "result": 47.25},
      {"measurement": "RANGE 0-60 (relative density of bone, femur X-ray grey scale)", "setting": "1 mg/kg PO CDX", "result": "78.61*"}
    ]}
  ]
}
